Measurements reported in PubChem BioAssay AID504804 (Drosophila RNAi Screening Center, 2011).

- Test: 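Knock-downs shielding fly cells from apoptosis caused by DNA damage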 (primary screen)
- System: Drosophila Kc cells
- Reagent: long dsRNA against Drosophila genes, 0.5 µg dsRNA per well
- Duration: 96 h (48 h knock-down, then 48 h drug)
- Conditions: doxorubicin 5 µg/ml for 48 h, added 48 h after dsRNA
- Measured: 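Luminescent ATP counts per replicate, not normalised, reflecting viable cells after 48 h dsRNA knock-down followed by 48 h of 5 µg/ml doxorubicin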
- Scale: raw ATP luminescence: higher = more viable cells, protection from doxorubicin
- Active means: 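z-score of 2 or more over plate mean in both duplicates, retained only when retests and separate dsRNAs confirm the protection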
The screen tested about 19,000 reagents; below is a random part of those with a known target gene and a result. In the full data, 47 (0.25%) are marked active. 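Signals are raw, not normalised; exact z-scores behind calls not deposited; actives needed confirmation, so some wells reaching 2 SD are inactive.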 Reagent sequences are not shown.

gene | PubChem SID | raw ATP luminescence, replicate 1 | raw ATP luminescence, replicate 2 | Call
beat-IIb | SID104193011 | 1.14e5 | 1.31e5 | inactive
beat-IIb | SID104194608 | 78630 | 74000 | inactive
beat-IIb | SID104195338 | 77090 | 1.00e5 | inactive
Nepl13 | SID104195424 | 84970 | 67190 | inactive
CG11007 | SID104185815 | 46163 | 56097 | inactive
AlkB | SID104198907 | 2.02e5 | 2.56e5 | inactive
DMAP1 | SID104185836 | 58343 | 57143 | inactive
CG11634 | SID104183492 | 53597 | 58143 | inactive
CG30015 | SID104185033 | 90693 | 89563 | inactive
CG30015 | SID104186819 | 69927 | 51377 | inactive
CG30015 | SID104186820 | 41147 | 75877 | inactive
RpS3 | SID104196630 | 40170 | 30150 | inactive
CG3483 | SID104184163 | 75353 | 48510 | inactive
CheB93a | SID104194836 | 34200 | 41040 | inactive
aft | SID104187368 | 64950 | 58163 | inactive
HPS1 | SID104185987 | 63850 | 80270 | inactive

Part of the list above in another layout.
| gene | PubChem SID | raw ATP luminescence, replicate 1 | raw ATP luminescence, replicate 2 | Call |
| --- | --- | --- | --- | --- |
| CG30015 | SID104186819 | 69927 | 51377 | inactive |
| CG30015 | SID104186820 | 41147 | 75877 | inactive |
| RpS3 | SID104196630 | 40170 | 30150 | inactive |

The results go on.
gene | PubChem SID | raw ATP luminescence, replicate 1 | raw ATP luminescence, replicate 2 | Call
Nepl7 | SID104182287 | 87467 | 75083 | inactive
glu | SID104183331 | 93667 | 75443 | inactive
Epg5 | SID104194570 | 48950 | 58330 | inactive
COX8 | SID104191606 | 72383 | 72290 | inactive
RpLP0-like | SID104186216 | 76830 | 41920 | inactive
Kcmf1 | SID104194251 | 78707 | 28953 | inactive
SdhA | SID104187339 | 59750 | 70150 | inactive
CG42676 | SID104188019 | 65163 | 63343 | inactive
CG9733 | SID104196341 | 36160 | 45880 | inactive
Rhau | SID104182992 | 88283 | 60697 | inactive
CG9016 | SID104182919 | 30680 | 41777 | inactive
CG14851 | SID104194767 | 71370 | 55210 | inactive
JYalpha | SID104197016 | 54100 | 59040 | inactive
Camta | SID104186232 | 37587 | 66093 | inactive
Camta | SID104186233 | 49233 | 76673 | inactive
Camta | SID104187064 | 63737 | 83847 | inactive
Cip4 | SID104187883 | 1.64e5 | 1.80e5 | inactive
Cip4 | SID104188261 | 31167 | 41323 | inactive
